# This is one part of the list.
# Molecular target: T1, OsSMF1 (Oryza sativa, UniProt Q6ZLB0 1-436)
# T1 sequence: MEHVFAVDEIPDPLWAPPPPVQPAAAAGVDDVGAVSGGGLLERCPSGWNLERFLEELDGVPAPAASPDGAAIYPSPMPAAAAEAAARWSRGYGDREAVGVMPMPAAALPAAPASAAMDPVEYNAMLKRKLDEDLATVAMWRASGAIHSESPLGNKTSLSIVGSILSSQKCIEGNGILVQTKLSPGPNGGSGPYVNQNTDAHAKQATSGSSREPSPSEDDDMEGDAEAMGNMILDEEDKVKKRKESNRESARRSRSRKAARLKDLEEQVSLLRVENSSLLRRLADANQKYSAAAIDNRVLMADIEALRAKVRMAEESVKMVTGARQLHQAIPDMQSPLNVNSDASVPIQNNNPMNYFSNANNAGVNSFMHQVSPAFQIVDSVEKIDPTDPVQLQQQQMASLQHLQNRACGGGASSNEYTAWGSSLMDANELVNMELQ
# Experiment: protein-binding microarray (RPBM); PBS, 2% BSA, 51.3 ng/ul salmon testes DNA, 50 uM zinc acetate, 200 nM TF, 25 C, 1 h; high values mean tight binding
# Details: protein: recombinant; tags: N-terminal polyhistidine and DsRed monomer fusion (pET32a); chain copies: 2; label: CyDye5-dUTP incorporated in the synthesized complementary strand; 3' TTTTT single-stranded linker to array surface; dsDNA, one strand shown
# In short: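 Binding signal is reported as fluorescence intensity per feature (arbitrary units) from an Axon 4000B scanner. Incubation used 200 nM of each Ni–NTA-purified, N-terminally polyhistidine- and DsRed-fused transcription factor from E. coli BL21-CodonPlus on a double-stranded custom Agilent array for 1 h at 25 °C, with 50 µM zinc acetate in the buffer, followed by washing.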
row,Sequence,binding signal
1,ACGACGACGACGACGATGAGGTGGCGCCGCCGGCTCCGCACGGAGTCACCTAGTGCAG,8670 fluorescence intensity (a.u.)
2,ACCACCACCAGTCCACCACACCCGGCTCACGTAGACCGCGCGGAGTCACCTAGTGCAG,4950 fluorescence intensity (a.u.)
3,TGGCCAATTGGGAGTGGTTGCCCATTTGCCATGTCAACGCCGGAGTCACCTAGTGCAG,6130 fluorescence intensity (a.u.)
4,GCCTCGCCTCCTCACGCGAGCCACTGCTGTCGCCGCACCACGGAGTCACCTAGTGCAG,3620 fluorescence intensity (a.u.)
5,AGCACAATGCGTGGCAGATTGAATGCCTGCGTGTCAGACTCGGAGTCACCTAGTGCAG,11800 fluorescence intensity (a.u.)
6,TTTGAATACAATTGTAATTTGAGCCATTAGTGACTGTATGCGGAGTCACCTAGTGCAG,4140 fluorescence intensity (a.u.)
7,GAGGACGGCGTTGCGTTGGCGGTTGGGCGTCTCGTCCCGTCGGAGTCACCTAGTGCAG,3320 fluorescence intensity (a.u.)
8,TAACTTATTTGGGGCATGTAATCAGTGCTGCTGGGGTATCCGGAGTCACCTAGTGCAG,25000 fluorescence intensity (a.u.)
9,GTAGATGCTTCACTTGGAGGAGAGTTGATGTTGTTGTCCACGGAGTCACCTAGTGCAG,3660 fluorescence intensity (a.u.)
10,AATAAAGTTGGGTGGTTGGGGCGCGCGATAGGAGTAAATCCGGAGTCACCTAGTGCAG,4140 fluorescence intensity (a.u.)
11,GTATCTGAACCCATCAAATACGTCACAAATTAAGGCATCCCGGAGTCACCTAGTGCAG,4220 fluorescence intensity (a.u.)
12,TAACAAATGCTTTTATTAATCATTCATCATGTGACATATCCGGAGTCACCTAGTGCAG,3210 fluorescence intensity (a.u.)
13,ACTATTGTTTGGTAGTAAAATTGATAATTAAATGACTATACGGAGTCACCTAGTGCAG,40900 fluorescence intensity (a.u.)
14,GGTCTTCAAAATACAACTTGGAATACGTGTACGTTGTTCTCGGAGTCACCTAGTGCAG,4740 fluorescence intensity (a.u.)
15,GGGAACGTCGAGCGGCGCCATCGTCACGTTGAGCACCGTGCGGAGTCACCTAGTGCAG,4750 fluorescence intensity (a.u.)
16,CATTTGCGTGCCTGATTAATCCTCTCGTCATCTCACCTCACGGAGTCACCTAGTGCAG,4550 fluorescence intensity (a.u.)
17,GCACAATCTGTCTCTAGCTAGCCCAGCAGCGTTCAGATCGCGGAGTCACCTAGTGCAG,3250 fluorescence intensity (a.u.)
18,TCTTCTGCCGCTGCTGCCACGCGCCGCCTCGACGCCGCCCCGGAGTCACCTAGTGCAG,3230 fluorescence intensity (a.u.)
19,CTGGCCCGGGGTCGGGTGCGACGCGCGGGCGGGGCGGGTGCGGAGTCACCTAGTGCAG,6090 fluorescence intensity (a.u.)
20,CGCGCTCGTCCAGAGCGTCACGCGCGTGTGCGGCGTCGACCGGAGTCACCTAGTGCAG,4330 fluorescence intensity (a.u.)
21,AGCAGAGTGATCTCTGATGGTCACGGGCCGAGAAGGGAAGCGGAGTCACCTAGTGCAG,45700 fluorescence intensity (a.u.)

# 2 entries from above, set out differently:
row	Sequence	binding signal
7	GAGGACGGCGTTGCGTTGGCGGTTGGGCGTCTCGTCCCGTCGGAGTCACCTAGTGCAG	3320 fluorescence intensity (a.u.)
16	CATTTGCGTGCCTGATTAATCCTCTCGTCATCTCACCTCACGGAGTCACCTAGTGCAG	4550 fluorescence intensity (a.u.)

# Later entries

row,Sequence,binding signal
1,TTTATTGTGACTTAGAACTTCAATTTTCACTTTAGTAATGCGGAGTCACCTAGTGCAG,21300 fluorescence intensity (a.u.)
2,TATAGTCTTGCATATTTCACCGTTTTGTTGTCGTCAATTTCGGAGTCACCTAGTGCAG,3990 fluorescence intensity (a.u.)
3,GGTTACTAAACTTGTTAAGGAGATGGAGTAAGTCATCATGCGGAGTCACCTAGTGCAG,3750 fluorescence intensity (a.u.)
4,CCCTTCAGCACCTGTTATGTGGTCAAGGTGACGGTCAGATCGGAGTCACCTAGTGCAG,3710 fluorescence intensity (a.u.)
5,CTTGTGCAGTGGCGGAGACCGGAGTGATCAGGCAGCCGATCGGAGTCACCTAGTGCAG,3340 fluorescence intensity (a.u.)
6,CAAAACGATGTGACCTAGTATGAATCTGGATAGATCGTATCGGAGTCACCTAGTGCAG,3740 fluorescence intensity (a.u.)
7,GCGCTGTGGTGGTGTGCATGCGTGGCGGTTAGGGTGGAGGCGGAGTCACCTAGTGCAG,8430 fluorescence intensity (a.u.)
8,AGAGTGAGAGAGATGCTGTGTCTGGTAGAGTGTCTTTTATCGGAGTCACCTAGTGCAG,3150 fluorescence intensity (a.u.)
9,ACTCCTTCGCCTTTTCCCCTTTCCACGTCAGCGACGCGCACGGAGTCACCTAGTGCAG,35800 fluorescence intensity (a.u.)
10,TTGATTTAGTCCATTTAATGAATGGTGCGTCACACTAAAACGGAGTCACCTAGTGCAG,4780 fluorescence intensity (a.u.)
11,GGACTGATTTGCCTTTGCCCTTGCCGGCGCAGTCCAACCACGGAGTCACCTAGTGCAG,3530 fluorescence intensity (a.u.)
12,CGAAAAGGAGGAAATGGCAGCACAACTCATGTCCAGTATACGGAGTCACCTAGTGCAG,3170 fluorescence intensity (a.u.)
13,TGGAAACATGATGAGAAATGCTGCGATTGTCTTCCACTAACGGAGTCACCTAGTGCAG,4360 fluorescence intensity (a.u.)
14,TTTAGGCCTCCATCATAAAGATCATCACAACTAGCTTCACCGGAGTCACCTAGTGCAG,19500 fluorescence intensity (a.u.)
15,AATATTAAGAGTAGTTTCAACTGACATGATGCTTATCAAACGGAGTCACCTAGTGCAG,3290 fluorescence intensity (a.u.)
16,TGCGCCATTAGCGTCACATGGGGTGGGCTCTTGTACACTACGGAGTCACCTAGTGCAG,4460 fluorescence intensity (a.u.)
17,CAACATCAGGAATGTTCAGGCCATACCATGTCAGCATGTACGGAGTCACCTAGTGCAG,5460 fluorescence intensity (a.u.)
18,GTAGTTGCGTTTTCATATAATGGATATTATTTATTCATGTCGGAGTCACCTAGTGCAG,3190 fluorescence intensity (a.u.)
19,ACAACCAGGTCACCGTGCGATCGATCGATTGCTAATTTATCGGAGTCACCTAGTGCAG,3480 fluorescence intensity (a.u.)
20,AGGCACGCGTGAGTTCGTGACGTTTCTCGCGCACGGCGCGCGGAGTCACCTAGTGCAG,4890 fluorescence intensity (a.u.)
21,GGAAAGCGAGCCAATCCGTGGCCGAATGCTAACCTTTCCCCGGAGTCACCTAGTGCAG,3180 fluorescence intensity (a.u.)

# From publication PMC7819943, “Rice protein-binding microarrays: a tool to detect cis-acting elements near promoter regions in rice”
